Experimental data from article PMC8785589.

Biological target: T1, HA-tagged p100 (UniProt Q00653)
T1 sequence: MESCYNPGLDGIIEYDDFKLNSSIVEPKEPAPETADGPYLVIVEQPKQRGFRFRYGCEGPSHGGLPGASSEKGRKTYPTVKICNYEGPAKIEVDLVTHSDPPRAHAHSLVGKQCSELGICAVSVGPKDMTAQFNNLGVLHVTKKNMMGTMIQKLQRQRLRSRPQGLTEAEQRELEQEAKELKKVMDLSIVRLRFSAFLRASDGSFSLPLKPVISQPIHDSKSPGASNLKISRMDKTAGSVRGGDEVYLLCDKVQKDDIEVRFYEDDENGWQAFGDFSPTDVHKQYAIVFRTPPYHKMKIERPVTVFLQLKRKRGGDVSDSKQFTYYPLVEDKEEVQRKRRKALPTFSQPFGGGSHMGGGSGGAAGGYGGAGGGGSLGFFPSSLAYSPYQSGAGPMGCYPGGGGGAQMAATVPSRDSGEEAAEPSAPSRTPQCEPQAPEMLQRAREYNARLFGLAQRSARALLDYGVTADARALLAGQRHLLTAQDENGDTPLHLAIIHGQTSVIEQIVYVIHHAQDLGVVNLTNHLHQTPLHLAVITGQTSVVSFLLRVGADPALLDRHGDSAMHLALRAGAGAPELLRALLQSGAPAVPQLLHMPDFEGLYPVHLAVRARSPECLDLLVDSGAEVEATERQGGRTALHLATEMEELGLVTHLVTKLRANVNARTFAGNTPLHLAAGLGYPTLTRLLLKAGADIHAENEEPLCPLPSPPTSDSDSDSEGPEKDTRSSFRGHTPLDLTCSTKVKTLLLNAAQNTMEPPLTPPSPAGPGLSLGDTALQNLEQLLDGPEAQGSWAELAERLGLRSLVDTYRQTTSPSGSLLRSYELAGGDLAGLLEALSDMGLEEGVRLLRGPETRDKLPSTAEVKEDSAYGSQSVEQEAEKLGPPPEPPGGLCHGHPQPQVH
Assay: co-IP; HEK293T co-transfected with FLAG-Vpx and an HA-tagged protein, 24 h; lysis in 0.5% NP-40 in PBS with protease and phosphatase inhibitors; anti-HA agarose beads 2-4 h, 3 washes; blots for FLAG and HA

With FLAG-tagged SIVmac Vpx (SIVmac251) the binding was “no binding”.

These are yes or no findings as the source states them, for the method shown. Binding seen in cells or lysates may run through a third protein. Where a sequence is shown, tags or fusion partners need not be part of it.
